{"source": "patent US20200147178A1", "about": "(SYNERKINE PHARMA B V, published 2020)", "binders": {"B1": {"name": "recombinant human IL4 (Sigma, Cat #14269), P05112 25-153 (ligand, UniProt P05112 25-153, looked up)", "chain": "HKCDITLQEIIKTLNSLTEQKTLCTELTVTDIFAASKNTTEKETFCRAATVLRQFYSHHEKDTRCLGATAQQFHRHKQLIRFLKRLDRNLWGLAGLNSCPVKEANQSTLENFLERLKTIMREKYSKCSS"}}, "molecular_target": "T1, recombinant human IL4 (Sigma, Cat #14269) (human), P05112", "T1 chain": "B1 chain", "assay": "HP-SEC, self-association", "conditions": "remark: other sources report otherwise", "note": "Results are given in words; binding and its absence hold for the method and conditions named."}
{"binder": "B1", "values": [{"measurement": "binding", "result": "no binding"}]}
